Reference: PubChem BioAssay AID493014 (National Center for Advancing Translational Sciences (NCATS), 2011)
Some of the results follow. The main result of the screen is listed elsewhere. These columns were measured beside it and carry no call. The list favours compounds with an active or inconclusive main result. Potencies come from curve fits of mixed quality, noted in brackets.

Assay: qHTS Assay to Find Inhibitors of Chronic Active B-Cell Receptor Signaling
Conditions: ABC-DLBCL IkBa-CBG/CBR reporter, luminescence ratio (green luciferase fused to IkBa over red control in TMD8 lymphoma cells), 4 h
Method in brief: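 Doxycycline induced both beetle luciferases in TMD8 lymphoma cells; IKK-driven degradation limits the IkappaBalpha-fused green signal, while red luminescence normalises for cell number and nonspecific effects. Compounds tested up to 46 uM, 4 hrs.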

[1] = measured here: CBR red luminescence, cell number
[2] = measured here: IkBa-CBG green luminescence

Q: For `Cc1cc(N2CCN(c3ccccc3)CC2)n2ncnc2n1`, which AC50 [1] is on record?
A: 2.82 µM [falling, partial curve, poor fit]

Q: For `COCC(=O)N1CCC(Oc2ccc(C(=O)NCc3csc(C(C)C)n3)cc2)CC1`, which AC50 [1] is on record?
A: 20 µM [falling, partial curve, poor fit]

Q: With `CC(C)CCNC(=O)c1ccc2c(c1)N(C)C(=O)c1ccccc1S2` as the compound, how does the AC50 [1] read?
A: 31.6 µM [rising, single point]

Q: For `Cc1cc(C)c2c(=O)[nH]c(SCc3ccccc3)nc2n1`, which AC50 [1] is on record?
A: 4.47 µM [falling, full curve]

Q: With `CCC(CC)C1C(C#N)=C(N)Oc2n[nH]c(-c3ccccc3)c21` (stereo not given) as the compound, how does the AC50 [1] read?
A: 7.31 µM [falling, partial curve]

Q: Which AC50 [1] does the source give for `CC(OC(=O)c1c[nH]c2ccccc12)C(=O)N1CCCC1` (stereo not given) here?
A: 9.2 µM [rising, single point]

Q: For `CC1=C(C(N)=O)C(c2ccc(Cl)cc2Cl)n2ncnc2N1` (stereo not given), which AC50 [1] is on record?
A: 2.59 µM [rising, partial curve, poor fit]

Q: For `CCOC(=O)c1oc2ccc(S(=O)(=O)n3nc(-c4ccccc4)cc3N)cc2c1C`, which AC50 [1] is on record?
A: 29.1 µM [falling, single point]

Q: Which AC50 [1] does the source give for `Cc1ccc(C(=O)Nc2cccc(C(F)(F)F)c2)cc1NC(=O)c1cnnc2ccccc12` here?
A: 2.24 µM [falling, full curve, poor fit]

Q: Which AC50 [1] does the source give for `O=c1cc(N2CCc3ccccc32)[nH]c(=O)n1-c1ccccc1Cl` here?
A: 25.1 µM [falling, single point]

Q: With `COc1ccccc1C(=O)/C=C/c1ccc(N2CCCCC2)c([N+](=O)[O-])c1` as the compound, how does the AC50 [1] read?
A: 20.6 µM [falling, single point]

Q: With `Cc1cnnc2ccc3c(no[n+]3[O-])c12` as the compound, how does the AC50 [1] read?
A: 3.98 µM [rising, full curve]

Q: Which AC50 [1] does the source give for `Cc1ccc(-c2nnn(CC(=O)N3CCN(c4ccccc4)CC3)n2)o1` here?
A: 29.1 µM [rising, single point]

Q: Which AC50 [1] does the source give for `CCOC(=O)N1CCC(Nc2ncnc3c2cnn3-c2ccc(Cl)cc2)CC1` here?
A: 14.6 µM [rising, partial curve]

Q: Which AC50 [1] does the source give for `O=C(CNC(=O)C1(c2ccccc2)CC1)Nc1ccc(F)c(F)c1` here?
A: 6.51 µM [rising, partial curve, poor fit]

Q: With `CC1=NN(c2ccccc2)C(=O)/C1=C/N(C)C` as the compound, how does the AC50 [1] read?
A: 5.62 µM [rising, single point]

Q: With `COC(=O)c1cccc(NC(=O)c2ccco2)c1` as the compound, how does the AC50 [1] read?
A: 25.9 µM [falling, partial curve, poor fit]

Q: Which AC50 [1] does the source give for `CCOC(=O)C1(CCCc2ccccc2)CCN(CC(O)CO)CC1` (stereo not given) here?
A: 11.2 µM [falling, partial curve, poor fit]

Q: For `COc1ccc(CCNC(=O)CSc2nnc3ccc(-c4cccnc4)nn23)cc1`, which AC50 [1] is on record?
A: 0.562 µM [falling, full curve]

Q: With `Cc1cccc(NC2=C(NC(=O)c3ccccc3)C(=O)c3ccccc3C2=O)c1` as the compound, how does the AC50 [1] read?
A: 29.1 µM [falling, single point]

Q: Which AC50 [1] does the source give for `O=C(NCc1cc([N+](=O)[O-])ccc1O)c1cccc(NS(=O)(=O)c2ccccc2)c1` here?
A: 11.2 µM [falling, partial curve]

Q: For `O=C(CN1C(=O)COc2ccccc21)N(Cc1cccnc1)Cc1cccc(F)c1`, which AC50 [1] is on record?
A: 20.6 µM [rising, single point]

Q: Which AC50 [1] does the source give for `CC(C)(C)c1csc(NC(=O)c2c(F)c(F)c(F)c(F)c2F)n1` here?
A: 14.1 µM [falling, partial curve]

Q: With `COc1ccc(S(=O)(=O)Nc2cc(C)ccc2OC)cc1C` as the compound, how does the AC50 [1] read?
A: 20.6 µM [falling, partial curve, poor fit]

Q: For `COc1ccc(CC(=O)Nc2nc(-c3ccc(F)c(F)c3)cs2)cc1`, which AC50 [1] is on record?
A: 35.5 µM [falling, single point]

Q: Which AC50 [1] does the source give for `O=C1C(=O)N(c2cccc(Cl)c2)C(c2ccccc2[N+](=O)[O-])/C1=C(\O)c1ccccc1` (stereo not given) here?
A: 20 µM [falling, single point]

Q: With `COc1ccccc1NC(=O)Nc1ccc2c(c1)OCCO2` as the compound, how does the AC50 [1] read?
A: 8.91 µM [falling, partial curve, poor fit]

Q: With `COc1ccc(-c2nc3ccccn3c2/N=C/c2ccc(OC)c(OC)c2)cc1O` as the compound, how does the AC50 [2] read?
A: 3.26 µM [falling, partial curve, poor fit]

Q: Which AC50 [1] does the source give for `COc1cc(NC(=S)NCc2ccco2)cc(OC)c1OC` here?
A: 2.06 µM [rising, partial curve]

Q: For `Cc1sc2ncn(CC(=O)OC(C)C)c(=O)c2c1C`, which AC50 [1] is on record?
A: 0.0651 µM [rising, full curve, poor fit]

Q: With `CC(C)=CCCC1(C)C=Cc2c(c(C)cc3c2[nH]c2cc(O)ccc23)O1` (stereo not given) as the compound, how does the AC50 [1] read?
A: 7.94 µM [rising, partial curve, poor fit]

Q: Which results are given for `Cc1ccccc1C(=O)N1CCC(C(=O)Nc2nc3ccc(F)cc3s2)CC1`?
A: AC50 [1]: 16.4 µM [falling, partial curve]; AC50 [2]: 9.2 µM [rising, partial curve, poor fit]

Q: For `Cc1ccc2nc(=O)c(NNc3ccccc3)cnc2c1`, which AC50 [1] is on record?
A: 4.61 µM [falling, partial curve]

Q: For `C/C(=N\NC(=O)c1ccccc1F)c1cccc(NC(=O)c2ccccc2)c1`, which AC50 [1] is on record?
A: 7.08 µM [falling, full curve, poor fit]

Q: Which AC50 [1] does the source give for `N#C/C(=C/c1ccc(F)cc1)C(N)=S` here?
A: 7.08 µM [falling, partial curve]

Q: Which AC50 [1] does the source give for `Nc1nnc(-c2ccc(F)cc2)s1` here?
A: 0.891 µM [falling, full curve]

Q: For `O=c1[nH]c(C2CCN(S(=O)(=O)Cc3ccccc3)CC2)nc2c1nnn2Cc1ccccc1`, which AC50 [2] is on record?
A: 12.6 µM [rising, partial curve, poor fit]

Q: For `CC(C)Oc1ccc(-c2nc(NCC3CCCO3)c3ccccc3n2)cc1` (stereo not given), which AC50 [1] is on record?
A: 3.55 µM [rising, single point]

Q: For `COc1ccc(S(=O)(=O)Nc2ccc3c(c2)C(=O)N([C@H](C)CO)C[C@H](C)[C@@H](CN(C)S(=O)(=O)c2ccccc2)O3)cc1`, which AC50 [1] is on record?
A: 10.3 µM [rising, partial curve]

Q: For `Cc1ccc(-c2[nH]ncc2/C=C(\C#N)C(=O)NC2CCCCC2)cc1`, which AC50 [1] is on record?
A: 35.5 µM [falling, single point]

Q: Which AC50 [1] does the source give for `COc1ccc(/C=C(\CC(=O)O)c2nc3ccccc3s2)cc1O` here?
A: 5.62 µM [falling, partial curve]

Q: For `COc1ccc(/C=N/NC(=O)c2ccc(O)cc2O)cc1CSc1ccccn1`, which AC50 [1] is on record?
A: 9.2 µM [falling, partial curve]

Q: With `O=C(c1ccc(N2CCN(C3CC(=O)N(Cc4cccs4)C3=O)CC2)cc1)c1cccnc1` (stereo not given) as the compound, how does the AC50 [1] read?
A: 35.5 µM [falling, single point]

Q: For `CC(C)c1cc(CN2CCOCC2)cc(C(C)C)c1O`, which AC50 [1] is on record?
A: 2.82 µM [rising, partial curve, poor fit]

Q: For `COc1cc(CC2COC(c3ccc(O)c(OC)c3)C2COC(C)=O)ccc1O` (stereo not given), which AC50 [1] is on record?
A: 5.62 µM [rising, single point]

Q: With `Cc1cc(O)c(C(C)C)cc1N=Nc1ccccc1C(=O)O` as the compound, how does the AC50 [1] read?
A: 35.5 µM [falling, single point]

Q: With `CCN(CC)S(=O)(=O)c1ccc(OCC(=O)NC(=O)Cc2ccccc2)c([N+](=O)[O-])c1` as the compound, how does the AC50 [1] read?
A: 32.6 µM [rising, single point]

Q: For `O=C(NC(=S)N1CCN(C/C=C/c2ccccc2)CC1)c1cccnc1`, which AC50 [1] is on record?
A: 35.5 µM [falling, single point]

Q: For `Cn1c(COc2ccccc2)nc2ccccc21`, which AC50 [1] is on record?
A: 3.55 µM [rising, full curve, poor fit]

Q: With `Cc1ccc(C)c(NC(=O)CCc2ccc(S(=O)(=O)NC3CCCCC3)cc2)c1` as the compound, how does the AC50 [1] read?
A: 0.82 µM [falling, partial curve, poor fit]

Q: With `Cc1cc(C)c2cc(C(=O)Nc3ccccc3)[nH]c2c1` as the compound, how does the AC50 [1] read?
A: 10 µM [falling, partial curve, poor fit]

Q: Which AC50 [1] does the source give for `OCCN1CCN(CC(O)COc2ccc(Cl)cc2)CC1` (stereo not given) here?
A: 10.3 µM [rising, single point]

Q: Which AC50 [2] does the source give for `CCCCCCCCCCCCOC(=O)C[N+](C)(C)C` here?
A: 35.5 µM [rising, partial curve, poor fit]

Q: For `COc1ccc(CCNC(=O)c2cccc(NC(=O)CC3SC(N4CCCCC4)=NC3=O)c2)cc1OC` (stereo not given), which AC50 [1] is on record?
A: 14.1 µM [falling, partial curve, poor fit]

Q: For `COc1ccc(NC(=O)N(CCN2CCCC2)Cc2cc3cc(OC)c(OC)cc3[nH]c2=O)cc1`, which AC50 [1] is on record?
A: 11.2 µM [rising, partial curve, poor fit]

Q: Which AC50 [1] does the source give for `Cc1c(Nc2scc(-c3ccccc3)[n+]2-c2ccccc2)c(=O)n(-c2ccccc2)n1C` here?
A: 17.8 µM [rising, single point]

Q: Which AC50 [1] does the source give for `CCc1cccc(CC)c1NC(=O)COC(=O)C1(C)CC1(Cl)Cl` (stereo not given) here?
A: 35.5 µM [rising, single point]

Q: Which AC50 [1] does the source give for `O=C(NC(=O)N1CCOCC1)c1ccccc1` here?
A: 32.6 µM [rising, single point]

Q: With `Cc1ccccc1C(=O)NC(=S)Nc1ncccn1` as the compound, how does the AC50 [1] read?
A: 11.2 µM [falling, single point]

Q: Which AC50 [1] does the source give for `O=C(N/N=C/CCc1ccccc1)c1ccccc1` here?
A: 8.91 µM [falling, partial curve]

Q: For `CCCC(=O)N=c1sc2c(OC)ccc(OC)c2n1C`, which AC50 [1] is on record?
A: 0.112 µM [rising, full curve, poor fit]

Q: With `Cc1c(C(=O)OCC(=O)Nc2ccc(S(N)(=O)=O)cc2)oc2c1ccc1ccccc12` as the compound, how does the AC50 [1] read?
A: 17.8 µM [rising, partial curve, poor fit]

Q: With `O=C(Nc1cccc(S(=O)(=O)N2CCOCC2)c1)c1ccc2ccccc2n1` as the compound, how does the AC50 [1] read?
A: 14.1 µM [falling, single point]

Q: With `CCC(CO)Oc1cc(NCc2ccccc2)c2ncn(C(C)C)c2c1` (stereo not given) as the compound, how does the AC50 [1] read?
A: 16.4 µM [falling, partial curve, poor fit]
